The other results are listed elsewhere or left out.
Key:
Test in all cases: log2 fold change, soluble protein after heating vs DMSO (PISA); higher = thermal stabilisation; K562 cells, 10 uM, 30 min; active = over 0.2 and 3.5 SD of the protein, either way, in both replicates (recomputed)
[1] = compound: C1=CC=C(C=C1)[C@H](COC2=CC3=C(C=C2)NC(=O)N3)NC(=O)C4=CC=CN(C4=O)CC5=CC(=C(C=C5)F)F
Procedure, shortened: (§1)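 Thermal stability values are relative to control samples and come from duplicates. They are expressed as log2 fold changes. For measurement, K562 cells (2×10^6 cells/mL) received 10 μM compound for 30 min, and aliquots were heated for 3 min over 48°C-58°C, pooled, and extracted at 4°C in PBS with 0.5% NP-40. Soluble protein, the supernatant after 21,000xg for 90 min, was quantified by TMTpro 16plex LC-MS/MS with equalised channel sums.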

Protein sequences, listed by entry. Tags and fused reporters are not part of them. Lines headed by an entry give the natural chain unless they say otherwise; changes in a name come on top.
UniProt Q9NR31: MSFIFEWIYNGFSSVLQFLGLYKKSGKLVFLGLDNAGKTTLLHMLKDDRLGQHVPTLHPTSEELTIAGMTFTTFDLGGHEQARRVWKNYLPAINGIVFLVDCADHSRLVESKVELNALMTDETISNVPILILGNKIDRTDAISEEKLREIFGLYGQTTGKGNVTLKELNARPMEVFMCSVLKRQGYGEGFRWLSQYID
UniProt P22307: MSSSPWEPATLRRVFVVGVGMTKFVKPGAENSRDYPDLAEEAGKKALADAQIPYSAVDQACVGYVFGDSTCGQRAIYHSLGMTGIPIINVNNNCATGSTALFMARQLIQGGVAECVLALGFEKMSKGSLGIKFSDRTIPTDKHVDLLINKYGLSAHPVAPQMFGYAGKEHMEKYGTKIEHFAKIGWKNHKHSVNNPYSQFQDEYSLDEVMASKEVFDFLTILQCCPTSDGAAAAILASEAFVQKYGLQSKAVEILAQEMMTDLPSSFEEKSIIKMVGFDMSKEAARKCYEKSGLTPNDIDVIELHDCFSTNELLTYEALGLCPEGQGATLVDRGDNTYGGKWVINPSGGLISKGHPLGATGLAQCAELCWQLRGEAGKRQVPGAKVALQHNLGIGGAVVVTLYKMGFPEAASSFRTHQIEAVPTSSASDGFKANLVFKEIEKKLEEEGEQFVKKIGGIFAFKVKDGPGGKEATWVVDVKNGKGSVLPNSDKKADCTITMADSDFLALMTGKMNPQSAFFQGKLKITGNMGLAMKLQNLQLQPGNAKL
UniProt Q6NW29: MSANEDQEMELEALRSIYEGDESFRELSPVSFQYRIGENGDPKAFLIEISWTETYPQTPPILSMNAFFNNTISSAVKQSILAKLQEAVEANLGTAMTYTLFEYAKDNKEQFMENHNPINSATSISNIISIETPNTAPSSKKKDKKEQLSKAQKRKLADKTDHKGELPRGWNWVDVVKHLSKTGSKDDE
UniProt Q9Y3A5: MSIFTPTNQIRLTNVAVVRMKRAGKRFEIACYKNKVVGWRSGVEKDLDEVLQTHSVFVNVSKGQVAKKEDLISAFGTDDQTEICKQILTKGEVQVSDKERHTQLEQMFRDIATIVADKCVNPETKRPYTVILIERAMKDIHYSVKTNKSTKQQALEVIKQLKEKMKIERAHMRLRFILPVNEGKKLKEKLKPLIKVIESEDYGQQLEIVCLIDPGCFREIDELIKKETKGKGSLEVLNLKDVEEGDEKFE
UniProt P23297: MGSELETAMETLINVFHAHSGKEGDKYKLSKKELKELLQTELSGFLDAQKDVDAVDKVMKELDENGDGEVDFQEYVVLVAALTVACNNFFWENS
UniProt Q96IZ7: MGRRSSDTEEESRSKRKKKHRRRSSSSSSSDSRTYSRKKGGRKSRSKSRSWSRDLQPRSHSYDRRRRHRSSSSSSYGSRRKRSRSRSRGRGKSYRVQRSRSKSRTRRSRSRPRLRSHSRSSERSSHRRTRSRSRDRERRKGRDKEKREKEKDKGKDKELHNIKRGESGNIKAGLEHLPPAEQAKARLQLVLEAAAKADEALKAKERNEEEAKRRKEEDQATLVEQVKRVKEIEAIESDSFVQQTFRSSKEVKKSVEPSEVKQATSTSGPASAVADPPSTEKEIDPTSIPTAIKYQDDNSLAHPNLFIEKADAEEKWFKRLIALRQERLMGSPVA
UniProt Q96FV2: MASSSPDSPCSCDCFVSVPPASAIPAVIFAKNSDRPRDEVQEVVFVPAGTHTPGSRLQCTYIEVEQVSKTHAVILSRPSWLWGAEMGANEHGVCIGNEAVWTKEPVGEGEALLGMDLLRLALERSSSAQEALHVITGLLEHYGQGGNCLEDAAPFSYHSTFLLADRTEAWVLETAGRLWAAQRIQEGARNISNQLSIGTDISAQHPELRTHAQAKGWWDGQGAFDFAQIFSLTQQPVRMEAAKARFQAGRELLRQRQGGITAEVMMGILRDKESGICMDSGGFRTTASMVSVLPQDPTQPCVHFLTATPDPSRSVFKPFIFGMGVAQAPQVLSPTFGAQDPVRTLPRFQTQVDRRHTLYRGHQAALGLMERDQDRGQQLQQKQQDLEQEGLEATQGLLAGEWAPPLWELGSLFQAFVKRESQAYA
UniProt Q9Y6Y8: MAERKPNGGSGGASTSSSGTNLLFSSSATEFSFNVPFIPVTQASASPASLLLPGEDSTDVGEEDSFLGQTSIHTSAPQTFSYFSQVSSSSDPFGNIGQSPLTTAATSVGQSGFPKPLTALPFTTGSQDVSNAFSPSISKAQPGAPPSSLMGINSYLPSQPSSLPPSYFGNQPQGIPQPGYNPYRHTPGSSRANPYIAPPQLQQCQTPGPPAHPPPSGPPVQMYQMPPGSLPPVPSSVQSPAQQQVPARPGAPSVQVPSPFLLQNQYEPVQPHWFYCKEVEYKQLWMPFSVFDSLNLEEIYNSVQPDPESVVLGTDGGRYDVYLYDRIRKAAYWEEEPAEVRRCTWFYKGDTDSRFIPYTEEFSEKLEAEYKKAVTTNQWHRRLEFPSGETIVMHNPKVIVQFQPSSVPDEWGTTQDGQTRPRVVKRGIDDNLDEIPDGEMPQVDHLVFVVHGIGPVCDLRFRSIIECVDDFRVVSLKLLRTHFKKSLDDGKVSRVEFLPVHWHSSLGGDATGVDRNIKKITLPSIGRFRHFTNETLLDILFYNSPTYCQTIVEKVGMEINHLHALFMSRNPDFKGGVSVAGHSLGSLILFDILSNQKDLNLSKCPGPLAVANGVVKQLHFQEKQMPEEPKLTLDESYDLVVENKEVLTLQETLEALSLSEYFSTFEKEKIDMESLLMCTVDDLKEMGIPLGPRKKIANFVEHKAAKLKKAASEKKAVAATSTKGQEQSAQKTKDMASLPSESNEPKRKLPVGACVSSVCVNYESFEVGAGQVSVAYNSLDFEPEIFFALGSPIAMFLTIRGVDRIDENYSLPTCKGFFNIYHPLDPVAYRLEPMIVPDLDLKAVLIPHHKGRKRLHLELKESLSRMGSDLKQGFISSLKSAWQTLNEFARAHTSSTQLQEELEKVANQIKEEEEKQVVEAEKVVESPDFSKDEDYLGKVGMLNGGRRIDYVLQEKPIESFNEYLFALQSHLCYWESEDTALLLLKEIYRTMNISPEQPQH
UniProt Q96BY9: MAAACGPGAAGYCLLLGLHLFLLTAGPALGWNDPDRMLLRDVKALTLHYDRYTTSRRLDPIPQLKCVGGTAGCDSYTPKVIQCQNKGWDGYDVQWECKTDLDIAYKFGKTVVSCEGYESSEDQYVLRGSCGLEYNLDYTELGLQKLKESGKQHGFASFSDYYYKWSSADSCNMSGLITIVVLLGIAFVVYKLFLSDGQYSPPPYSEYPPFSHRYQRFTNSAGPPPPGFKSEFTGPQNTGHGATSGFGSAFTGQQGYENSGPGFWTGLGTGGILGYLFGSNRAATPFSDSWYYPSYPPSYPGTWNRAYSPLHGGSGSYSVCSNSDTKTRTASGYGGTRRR
UniProt Q9Y6B6: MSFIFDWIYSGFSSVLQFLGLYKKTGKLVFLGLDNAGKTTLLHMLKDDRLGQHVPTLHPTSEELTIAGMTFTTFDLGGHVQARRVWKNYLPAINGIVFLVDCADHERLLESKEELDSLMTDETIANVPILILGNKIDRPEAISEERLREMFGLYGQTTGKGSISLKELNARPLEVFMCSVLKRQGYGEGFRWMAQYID
UniProt Q8WTV0: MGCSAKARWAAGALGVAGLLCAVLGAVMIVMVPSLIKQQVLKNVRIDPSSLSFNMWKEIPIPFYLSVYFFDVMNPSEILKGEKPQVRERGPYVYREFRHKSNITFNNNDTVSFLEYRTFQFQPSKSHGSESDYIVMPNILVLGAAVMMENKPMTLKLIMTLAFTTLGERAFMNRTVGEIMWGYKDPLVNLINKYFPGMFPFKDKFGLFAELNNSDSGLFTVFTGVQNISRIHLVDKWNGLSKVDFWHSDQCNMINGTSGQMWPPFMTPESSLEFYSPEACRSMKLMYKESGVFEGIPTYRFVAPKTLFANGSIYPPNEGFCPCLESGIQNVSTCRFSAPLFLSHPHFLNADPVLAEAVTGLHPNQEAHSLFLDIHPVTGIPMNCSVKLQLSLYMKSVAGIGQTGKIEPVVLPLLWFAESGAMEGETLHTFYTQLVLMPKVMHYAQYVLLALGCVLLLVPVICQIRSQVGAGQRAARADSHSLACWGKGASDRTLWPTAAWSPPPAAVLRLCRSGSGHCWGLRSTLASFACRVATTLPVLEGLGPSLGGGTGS
UniProt Q9UHR5: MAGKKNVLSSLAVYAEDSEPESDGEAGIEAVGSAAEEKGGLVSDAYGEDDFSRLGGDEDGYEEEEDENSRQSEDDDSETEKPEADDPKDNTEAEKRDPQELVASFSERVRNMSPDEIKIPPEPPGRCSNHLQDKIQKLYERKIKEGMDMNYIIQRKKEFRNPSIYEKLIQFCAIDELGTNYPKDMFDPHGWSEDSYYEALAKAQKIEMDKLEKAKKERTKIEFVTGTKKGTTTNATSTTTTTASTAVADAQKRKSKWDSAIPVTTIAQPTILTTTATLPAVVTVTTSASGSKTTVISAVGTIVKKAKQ
UniProt Q6UVJ0: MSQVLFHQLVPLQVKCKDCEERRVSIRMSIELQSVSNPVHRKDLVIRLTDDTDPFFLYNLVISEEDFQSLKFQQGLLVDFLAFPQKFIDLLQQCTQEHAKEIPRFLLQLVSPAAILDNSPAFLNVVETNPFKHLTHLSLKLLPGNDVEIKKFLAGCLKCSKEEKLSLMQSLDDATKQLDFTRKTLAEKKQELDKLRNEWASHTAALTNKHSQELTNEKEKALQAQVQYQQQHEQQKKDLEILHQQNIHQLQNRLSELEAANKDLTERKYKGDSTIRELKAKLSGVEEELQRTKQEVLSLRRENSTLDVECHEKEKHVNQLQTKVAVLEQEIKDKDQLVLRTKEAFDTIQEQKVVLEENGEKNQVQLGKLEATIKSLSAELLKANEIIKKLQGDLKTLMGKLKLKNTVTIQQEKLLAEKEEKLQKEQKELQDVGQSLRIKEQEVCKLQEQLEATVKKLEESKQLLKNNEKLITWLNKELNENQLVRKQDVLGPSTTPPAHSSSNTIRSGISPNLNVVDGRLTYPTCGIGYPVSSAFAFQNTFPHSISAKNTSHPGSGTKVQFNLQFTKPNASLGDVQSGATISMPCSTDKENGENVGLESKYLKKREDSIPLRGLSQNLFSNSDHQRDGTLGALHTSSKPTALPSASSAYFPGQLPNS
UniProt Q96BU1: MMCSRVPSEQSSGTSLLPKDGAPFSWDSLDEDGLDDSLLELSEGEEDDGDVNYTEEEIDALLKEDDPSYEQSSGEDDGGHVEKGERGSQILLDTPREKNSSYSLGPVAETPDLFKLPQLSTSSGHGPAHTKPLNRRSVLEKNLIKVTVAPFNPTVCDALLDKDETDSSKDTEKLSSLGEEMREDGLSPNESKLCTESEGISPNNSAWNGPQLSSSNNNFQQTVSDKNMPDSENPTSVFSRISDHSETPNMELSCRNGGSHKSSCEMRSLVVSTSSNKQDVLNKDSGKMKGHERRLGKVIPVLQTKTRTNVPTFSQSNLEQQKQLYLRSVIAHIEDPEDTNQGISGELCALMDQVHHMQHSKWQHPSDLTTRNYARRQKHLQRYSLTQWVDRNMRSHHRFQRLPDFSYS
UniProt O00442: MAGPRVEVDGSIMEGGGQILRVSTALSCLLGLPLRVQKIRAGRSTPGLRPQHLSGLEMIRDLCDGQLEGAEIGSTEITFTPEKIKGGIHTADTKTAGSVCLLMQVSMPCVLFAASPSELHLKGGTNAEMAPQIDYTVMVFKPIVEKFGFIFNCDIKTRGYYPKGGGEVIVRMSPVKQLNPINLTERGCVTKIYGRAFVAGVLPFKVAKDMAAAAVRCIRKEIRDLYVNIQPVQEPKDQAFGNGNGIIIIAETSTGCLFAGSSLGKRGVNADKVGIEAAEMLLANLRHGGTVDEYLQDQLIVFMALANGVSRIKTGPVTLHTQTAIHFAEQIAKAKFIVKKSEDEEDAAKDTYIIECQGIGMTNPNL
UniProt Q14108: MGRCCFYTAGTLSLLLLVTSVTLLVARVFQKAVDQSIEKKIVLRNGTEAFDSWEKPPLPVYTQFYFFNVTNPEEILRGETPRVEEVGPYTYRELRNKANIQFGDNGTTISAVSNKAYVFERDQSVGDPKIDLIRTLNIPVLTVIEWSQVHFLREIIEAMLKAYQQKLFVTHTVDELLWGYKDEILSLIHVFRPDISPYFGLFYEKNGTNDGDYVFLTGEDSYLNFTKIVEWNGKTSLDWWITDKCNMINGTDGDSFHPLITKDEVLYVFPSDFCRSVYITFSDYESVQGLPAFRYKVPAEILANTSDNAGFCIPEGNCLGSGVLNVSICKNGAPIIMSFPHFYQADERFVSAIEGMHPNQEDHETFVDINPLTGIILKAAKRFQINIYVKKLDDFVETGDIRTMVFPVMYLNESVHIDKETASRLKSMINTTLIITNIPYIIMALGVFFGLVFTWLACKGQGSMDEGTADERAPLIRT
UniProt O75396: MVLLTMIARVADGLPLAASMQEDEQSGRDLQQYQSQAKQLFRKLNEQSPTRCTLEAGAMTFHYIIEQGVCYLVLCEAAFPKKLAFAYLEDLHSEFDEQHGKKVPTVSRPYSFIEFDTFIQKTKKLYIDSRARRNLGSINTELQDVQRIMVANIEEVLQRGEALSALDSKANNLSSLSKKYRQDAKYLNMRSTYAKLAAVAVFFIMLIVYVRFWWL

[2] = compound: CC1=C(SC2=C1C(=N[C@H](C3=NN=C(N32)C)CC(=O)N)C4=CC=C(C=C4)Cl)C
Procedure, shortened: as §1

[3] = compound: CC1=C2C(=CC=C1)N=C(N(C2=O)C3=CC=CC=C3C)CN4C=NC5=C(N=CN=C54)N
Procedure, shortened: as §1

[4] = compound: Cc1sc2c(c1C)C(c1ccc(Cl)cc1)=N[C@@H](CC(=O)OC(C)(C)C)c1nnc(C)n1-2
Procedure, shortened: as §1

[5] = compound: c1ccc([C@@H]2C[C@H]2NC2CCNCC2)cc1
Procedure, shortened: as §1

[6] = compound: C#Cc1cccc(Nc2ncnc3cc(OCCOC)c(OCCOC)cc23)c1 [erlotinib]
Procedure, shortened: as §1

[7] = compound: C1=CC(=CC=C1C2=NC3=C(N2)C=C(C=C3)C(=O)N)OC4=CC=C(C=C4)Cl
Procedure, shortened: as §1

[8] = compound: C1CCN(C1)C(=O)NC2=CC=CC(=C2)NC3=NC=C(C(=N3)NCCC4=CN=CN4)Br
Procedure, shortened: as §1

[9] = compound: C1CN(CCC1(CC2=CC=C(C=C2)Cl)N)C3=NC=NC4=C3C=CN4
Procedure, shortened: as §1

[10] = compound: CC(C)C1=C2N=C(C=C(N2N=C1)NCC3=CC=CC=C3)NCCCCCCN
Procedure, shortened: as §1

[11] = compound: CC1=C(C2=C(C=C1)C(=O)C3=CC=CC=C3N2CCCN)C
Procedure, shortened: as §1

[12] = compound: CC1=C(C=C(C=C1)NC(=O)C2=CC(=CC=C2)C(C)(C)C#N)NC3=CC4=C(C=C3)N=CN(C4=O)C
Procedure, shortened: as §1

[13] = compound: CCN(CC)Cc1ccc2cc(COC(=O)Nc3ccc(C(=O)NO)cc3)ccc2c1 [givinostat]
Procedure, shortened: as §1

[14] = compound: CCn1c(C(=O)N(C2CC2)C2CC2)cc2c3c(ncn3C)c(Nc3cc(C)n(C)n3)nc21
Procedure, shortened: as §1

[15] = compound: CN1C2=C(C3=C1C(=O)N(N=C3)CC4=CC(=CC=C4)N)SC(=C2)S(=O)C
Procedure, shortened: as §1

[16] = compound: CN1CCN(CCOc2cc(OC3CCOCC3)c3c(Nc4c(Cl)ccc5c4OCO5)ncnc3c2)CC1 [saracatinib]
Procedure, shortened: as §1

[17] = compound: CN1CCN(c2nc(C3=C(c4c[nH]c5ccccc45)C(=O)NC3=O)c3ccccc3n2)CC1 [sotrastaurin]
Procedure, shortened: as §1

[18] = compound: CN1CCc2c(c3ccccc3n2Cc2ccc(C(=O)NO)cc2)C1 [Tubastatin A]
Procedure, shortened: as §1

[19] = compound: CNC(=O)C1=CC=CC=C1NC2=NC(=NC=C2Cl)NC3=C(C=C(C=C3)N4CCOCC4)OC
Procedure, shortened: as §1

[20] = compound: CNc1nc(-c2ccc3c(N)n[nH]c3c2)cc(N2C[C@@H](C(=O)NC3CCCCC3)CC[C@H]2C)n1
Procedure, shortened: as §1

[21] = compound: CON(C)C(=O)N1N=C(c2cc(F)ccc2F)S[C@@]1(CCCN)c1ccccc1 [filanesib]
Procedure, shortened: as §1

[22] = compound: CS(=O)(=O)c1ccc(-c2cnc(N)c(C(=O)Nc3ccccc3)n2)cc1
Procedure, shortened: as §1

[23] = compound: C[C@H](Nc1ncnc2nc[nH]c12)c1cc2cccc(Cl)c2c(=O)n1-c1ccccc1 [duvelisib]
Procedure, shortened: as §1

[24] = compound: Cc1cc(Nc2cc(N3CCN(C)CC3)nc(Sc3ccc(NC(=O)C4CC4)cc3)n2)n[nH]1 [tozasertib]
Procedure, shortened: as §1

[25] = compound: Cc1cc(SCc2sc(-c3ccc(C(F)(F)F)cc3)nc2C)ccc1OCC(=O)O
Procedure, shortened: as §1

[26] = compound: Cc1nc(Nc2ncc(C(=O)Nc3c(C)cccc3Cl)s2)cc(N2CCN(CCO)CC2)n1 [dasatinib]
Procedure, shortened: as §1

[27] = compound: NC(=O)Nc1cc(-c2cccc(F)c2)sc1C(=O)N[C@H]1CCCNC1
Procedure, shortened: as §1

[28] = compound: Nc1ccccc1NC(=O)c1ccc(CNC(=O)OCc2cccnc2)cc1 [entinostat]
Procedure, shortened: as §1

Measured: log2 fold change

SAR1A (UniProt Q9NR31)
inactive: [1] -0.045 | [2] -0.06 | [3] -0.075 | [4] -0.009 | [5] 0.064

RRP9 (UniProt O43818)
inactive: [1] 0.036 | [2] -0.136 | [3] 0.02 | [4] 0.015 | [5] 0.1

SCP2 (UniProt P22307)
inactive: [1] 0.013 | [2] 0.043 | [3] 0.029 | [4] -0.016 | [5] 0.001

RWDD4 (UniProt Q6NW29)
inactive: [1] -0.03 | [2] -0.007 | [3] 0.071 | [4] 0.067 | [5] -0.009

RTN2 (UniProt O75298)
inactive: [1] -0.048 | [2] 0.121 | [3] -0.02 | [4] -0.057 | [5] 0.028

SBDS (UniProt Q9Y3A5)
inactive: [1] -0.067 | [2] 0.067 | [3] 0.113 | [4] -0.025 | [5] -0.041

S100A1 (UniProt P23297)
inactive: [1] -0.04

SCAF4 (UniProt O95104)
inactive: [1] -0.016 | [2] 0.109 | [3] 0.052 | [4] 0.059 | [5] -0.045

SARS1 (UniProt Q5T5C7)
inactive: [6] -0.059 | [7] 0.213 | [8] -0.058 | [9] -0.04 | [10] 0.183 | [11] -0.112 | [12] -0.016 | [13] 0.004 | [14] -0.044 | [15] 0.083 | [16] 0.09 | [17] -0.004 | [18] 0.033 | [19] -0.174 | [20] 0.005 | [21] 0.127 | [22] 0.031 | [23] -0.06 | [24] 0.044 | [25] -0.031 | [26] -0.057 | [4] -0.007 | [27] 0.226 | [28] -0.01

RSRC1 (UniProt Q96IZ7)
inactive: [1] -0.002 | [2] -0.019 | [3] 0.079 | [4] -0.019 | [5] -0.03

SAFB2 (UniProt K7EQU4)
inactive: [1] -0.338

SEC24A (UniProt O95486)
inactive: [1] -0.022 | [2] 0.02 | [3] 0.014 | [4] -0.027 | [5] -0.021

RXRB isoform 3 (UniProt P28702)
inactive: [1] -0.025

SCRN2 (UniProt Q96FV2)
inactive: [1] -0.124 | [2] -0.166 | [3] 0.027 | [4] 0.003 | [5] -0.069

SEC23IP (UniProt Q9Y6Y8)
inactive: [1] -0.037 | [2] 0.001 | [3] 0.063 | [4] 0.031 | [5] -0.037

SARAF (UniProt Q96BY9)
inactive: [1] 0.039 | [2] -0.136 | [3] 0.173 | [4] 0.174 | [5] 0.144

SAR1B (UniProt Q9Y6B6)
inactive: [1] -0.012 | [2] 0.038 | [3] 0.037 | [4] -0.037 | [5] -0.026

SCARB1 isoform 2 (UniProt Q8WTV0)
inactive: [1] 0.059 | [2] 0.033 | [3] 0.021 | [4] 0 | [5] 0.011

SAP30BP (UniProt Q9UHR5)
inactive: [1] -0.004 | [2] -0.01 | [3] 0.039 | [4] 0.002 | [5] 0.023

SASS6 (UniProt Q6UVJ0)
inactive: [1] -0.006 | [2] 0.013 | [3] 0.021 | [4] -0.072 | [5] -0.024

S100PBP (UniProt Q96BU1)
inactive: [1] -0.062 | [2] -0.085 | [3] 0.093 | [4] -0.022 | [5] -0.094

RTCA (UniProt O00442)
inactive: [1] -0.007 | [2] 0.034 | [3] 0.006 | [4] 0.004 | [5] -0.004

SCARB2 (UniProt Q14108)
inactive: [1] 0.028 | [2] 0.024 | [3] -0.012 | [4] -0.003 | [5] 0.035

Reprinted at random: 2 entries already listed
SCARB2 (UniProt Q14108)
inactive: [1] 0.028 | [2] 0.024 | [3] -0.012 | [4] -0.003 | [5] 0.035

SAP30BP (UniProt Q9UHR5)
inactive: [1] -0.004 | [2] -0.01 | [3] 0.039 | [4] 0.002 | [5] 0.023

The list goes on:

SDF2L1 (UniProt Q9HCN8)
inactive: [1] 0.066 | [2] -0.004 | [3] -0.016 | [4] 0.01 | [5] -0.047

SAAL1 (UniProt Q96ER3)
inactive: [1] -0.054 | [2] 0.03 | [3] 0.046 | [4] 0.109 | [5] -0.043

RTN4IP1 (UniProt Q8WWV3)
inactive: [1] 0 | [2] 0.07 | [4] -0.051 | [5] -0.108
active: [3] 0.999

SEC22B (UniProt O75396)
inactive: [1] -0.001 | [2] 0.1 | [3] 0.078 | [4] -0.06 | [5] -0.046
